Results are given in words; binding and its absence hold for the method and conditions named. For part of these data: Binding seen in cells or lysates may run through a third protein. Some entries that bind do so weakly or less than the wild type.
What was measured:
[1] = biological target: T1, S. cerevisiae Smc6 (S. cerevisiae) (UniProt Q12749); assay: pull-down; S. cerevisiae Smc5/6 subunits co-expressed in E. coli Rosetta (DE3), one subunit with a Twin-Strep tag (N- or C-terminal); clarified lysate on Strep-Tactin Sepharose, 1 h at 4°C, 50 mM Tris-HCl pH 7.5, 300 mM NaCl, 5% glycerol; eluted with 2.5 mM desthiobiotin; Coomassie-stained SDS-PAGE
T1 sequence: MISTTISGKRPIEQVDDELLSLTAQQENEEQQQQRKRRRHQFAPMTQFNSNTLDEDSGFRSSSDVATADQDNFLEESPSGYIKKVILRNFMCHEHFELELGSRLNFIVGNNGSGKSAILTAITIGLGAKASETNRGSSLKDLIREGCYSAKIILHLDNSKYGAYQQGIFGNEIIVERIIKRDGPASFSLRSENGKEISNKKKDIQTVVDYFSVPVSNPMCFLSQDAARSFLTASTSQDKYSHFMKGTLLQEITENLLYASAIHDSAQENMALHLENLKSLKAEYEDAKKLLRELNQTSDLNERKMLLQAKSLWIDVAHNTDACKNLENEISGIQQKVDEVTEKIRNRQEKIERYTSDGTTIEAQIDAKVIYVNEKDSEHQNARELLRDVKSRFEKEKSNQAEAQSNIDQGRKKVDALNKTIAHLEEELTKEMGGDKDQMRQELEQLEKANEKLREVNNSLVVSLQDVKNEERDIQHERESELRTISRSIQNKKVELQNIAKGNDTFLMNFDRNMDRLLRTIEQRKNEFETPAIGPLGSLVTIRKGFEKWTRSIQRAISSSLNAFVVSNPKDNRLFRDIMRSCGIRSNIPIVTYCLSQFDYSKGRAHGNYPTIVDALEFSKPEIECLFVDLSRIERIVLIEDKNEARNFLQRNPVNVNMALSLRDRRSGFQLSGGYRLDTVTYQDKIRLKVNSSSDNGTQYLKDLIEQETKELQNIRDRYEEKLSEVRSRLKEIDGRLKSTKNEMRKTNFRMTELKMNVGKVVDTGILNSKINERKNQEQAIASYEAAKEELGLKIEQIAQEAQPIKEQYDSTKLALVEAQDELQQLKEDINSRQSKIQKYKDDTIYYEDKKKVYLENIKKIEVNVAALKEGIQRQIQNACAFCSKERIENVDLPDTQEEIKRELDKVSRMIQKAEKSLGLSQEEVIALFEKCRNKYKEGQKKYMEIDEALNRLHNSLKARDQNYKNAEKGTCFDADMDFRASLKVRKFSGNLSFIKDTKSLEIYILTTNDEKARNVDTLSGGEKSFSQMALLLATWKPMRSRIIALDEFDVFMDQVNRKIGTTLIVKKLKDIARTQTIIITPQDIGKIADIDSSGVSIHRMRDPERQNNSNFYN

[2] = biological target: T2, S. cerevisiae Nse2 (S. cerevisiae) (UniProt P38632); assay: as above
T2 sequence: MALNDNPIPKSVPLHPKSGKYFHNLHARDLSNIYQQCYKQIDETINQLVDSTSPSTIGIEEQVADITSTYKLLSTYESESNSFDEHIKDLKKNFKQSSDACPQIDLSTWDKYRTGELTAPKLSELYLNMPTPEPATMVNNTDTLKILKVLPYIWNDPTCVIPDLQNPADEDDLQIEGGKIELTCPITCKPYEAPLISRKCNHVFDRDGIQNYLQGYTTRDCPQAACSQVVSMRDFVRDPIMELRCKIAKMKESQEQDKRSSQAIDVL

[3] = biological target: T3, S. cerevisiae Nse1 (S. cerevisiae) (UniProt Q07913); assay: as above
T3 sequence: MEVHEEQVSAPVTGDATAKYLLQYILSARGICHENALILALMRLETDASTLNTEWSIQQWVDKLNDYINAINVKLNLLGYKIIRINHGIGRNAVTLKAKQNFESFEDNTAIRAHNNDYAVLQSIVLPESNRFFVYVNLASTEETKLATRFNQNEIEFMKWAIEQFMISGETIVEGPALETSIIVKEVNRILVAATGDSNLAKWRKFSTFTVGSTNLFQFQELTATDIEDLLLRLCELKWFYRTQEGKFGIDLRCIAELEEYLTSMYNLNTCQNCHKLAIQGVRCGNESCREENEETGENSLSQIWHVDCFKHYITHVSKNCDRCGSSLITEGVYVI

[4] = biological target: T4, S. cerevisiae Nse3 (S. cerevisiae) (UniProt Q05541); assay: as above
T4 sequence: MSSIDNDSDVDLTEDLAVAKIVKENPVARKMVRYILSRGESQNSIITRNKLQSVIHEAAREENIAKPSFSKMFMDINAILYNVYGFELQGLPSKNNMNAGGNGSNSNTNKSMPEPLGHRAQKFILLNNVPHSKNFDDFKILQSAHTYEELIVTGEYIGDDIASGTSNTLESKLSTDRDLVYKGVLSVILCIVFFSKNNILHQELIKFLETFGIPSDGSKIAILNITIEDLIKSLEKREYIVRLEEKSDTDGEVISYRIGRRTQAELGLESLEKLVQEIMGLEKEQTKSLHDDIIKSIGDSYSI

[5] = biological target: T5, S. cerevisiae Nse4 (S. cerevisiae) (UniProt P43124); assay: as above
T5 sequence: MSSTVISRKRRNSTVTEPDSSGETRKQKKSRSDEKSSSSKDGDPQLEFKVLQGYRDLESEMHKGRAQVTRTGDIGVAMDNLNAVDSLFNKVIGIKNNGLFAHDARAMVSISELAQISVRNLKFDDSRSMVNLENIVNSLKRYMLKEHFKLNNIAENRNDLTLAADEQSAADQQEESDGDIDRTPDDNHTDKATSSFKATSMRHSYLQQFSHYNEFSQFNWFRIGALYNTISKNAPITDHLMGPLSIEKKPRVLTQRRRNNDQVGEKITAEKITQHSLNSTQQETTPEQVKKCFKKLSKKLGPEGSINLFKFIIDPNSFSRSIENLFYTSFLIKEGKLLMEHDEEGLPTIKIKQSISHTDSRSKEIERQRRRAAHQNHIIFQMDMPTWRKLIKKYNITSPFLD

[6] = biological target: T1, S. cerevisiae Smc6 (S. cerevisiae); assay: SEC; large scale, 1 liter E. coli culture; Smc6 with C-terminal Twin-Strep tag; StrepTrap, HiTrap Heparin, then Superose 6 Increase in 10 mM Tris-HCl pH 7.5, 300 mM NaCl; peak fractions by SDS-PAGE and LC-MS/MS

Measured: binding

B1: S. cerevisiae Smc5 (protein, UniProt Q08204 1-1093)
chain: MTSLIDLGRYVERTHHGEDTEPRSKRVKIAKPDLSSFQPGSIIKIRLQDFVTYTLTEFNLSPSLNMIIGPNGSGKSTFVCAVCLGLAGKPEYIGRSKKVEDFIKNGQDVSKIEITLKNSPNVTDIEYIDARDETIKITRIITRSKRRSDYLINDYQVSESVVKTLVAQLNIQLDNLCQFLSQERVEEFARLKSVKLLVETIRSIDASLLDVLDELRELQGNEQSLQKDLDFKKAKIVHLRQESDKLRKSVESLRDFQNKKGEIELHSQLLPYVKVKDHKEKLNIYKEEYERAKANLRAILKDKKPFANTKKTLENQVEELTEKCSLKTDEFLKAKEKINEIFEKLNTIRDEVIKKKNQNEYYRGRTKKLQATIISTKEDFLRSQEILAQTHLPEKSVFEDIDIKRKEIINKEGEIRDLISEIDAKANAINHEMRSIQRQAESKTKSLTTTDKIGILNQDQDLKEVRDAVLMVREHPEMKDKILEPPIMTVSAINAQFAAYLAQCVDYNTSKALTVVDSDSYKLFANPILDKFKVNLRELSSADTTPPVPAETVRDLGFEGYLSDFITGDKRVMKMLCQTSKIHTIPVSRRELTPAQIKKLITPRPNGKILFKRIIHGNRLVDIKQSAYGSKQVFPTDVSIKQTNFYQGSIMSNEQKIRIENEIINLKNEYNDRKSTLDALSNQKSGYRHELSELASKNDDINREAHQLNEIRKKYTMRKSTIETLREKLDQLKREARKDVSQKIKDIDDQIQQLLLKQRHLLSKMASSMKSLKNCQKELISTQILQFEAQNMDVSMNDVIGFFNEREADLKSQYEDKKKFVKEMRDTPEFQSWMREIRSYDQDTKEKLNKVAEKYEEEGNFNLSFVQDVLDKLESEIAMVNHDESAVTILDQVTAELRELEHTVPQQSKDLETIKAKLKEDHAVLEPKLDDIVSKISARFARLFNNVGSAGAVRLEKPKDYAEWKIEIMVKFRDNAPLKKLDSHTQSGGERAVSTVLYMIALQEFTSAPFRVVDEINQGMDSRNERIVHKAMVENACAENTSQYFLITPKLLTGLHYHEKMRIHCVMAGSWIPNPSEDPKMIHFGETSNYSFD
binds: all assays above

Reference: paper PMC11612967
